Laboratory results from the supplement of paper PMC11732987, “Enantioselective OTUD7B fragment discovery through chemoproteomics screening and high-throughput optimisation” (Communications Chemistry, 2025).
Some of the results follow. The data scatter; read single values as rough.

The chains behind the UniProt entries cited, without tags or fusion partners. Where a name states a change or a piece, a line headed by the entry shows the natural chain unless it says otherwise. Residues count along the entry.
UniProt Q9H204: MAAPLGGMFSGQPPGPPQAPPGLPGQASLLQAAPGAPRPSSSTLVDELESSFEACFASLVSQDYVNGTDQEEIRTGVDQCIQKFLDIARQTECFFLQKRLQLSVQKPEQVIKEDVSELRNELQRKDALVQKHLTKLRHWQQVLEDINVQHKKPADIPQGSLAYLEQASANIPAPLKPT
UniProt O95396: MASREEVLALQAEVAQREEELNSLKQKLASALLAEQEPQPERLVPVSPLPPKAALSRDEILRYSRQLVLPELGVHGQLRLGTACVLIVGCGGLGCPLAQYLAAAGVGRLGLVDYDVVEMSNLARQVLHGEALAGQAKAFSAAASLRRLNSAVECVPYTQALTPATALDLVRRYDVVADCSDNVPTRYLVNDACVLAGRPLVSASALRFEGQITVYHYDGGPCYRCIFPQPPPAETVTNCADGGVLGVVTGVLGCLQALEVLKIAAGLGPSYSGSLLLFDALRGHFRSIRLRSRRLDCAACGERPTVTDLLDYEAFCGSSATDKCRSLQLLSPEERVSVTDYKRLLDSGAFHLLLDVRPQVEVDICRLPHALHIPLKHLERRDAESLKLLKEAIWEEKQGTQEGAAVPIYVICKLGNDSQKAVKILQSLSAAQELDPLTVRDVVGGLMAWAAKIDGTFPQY
UniProt P40926: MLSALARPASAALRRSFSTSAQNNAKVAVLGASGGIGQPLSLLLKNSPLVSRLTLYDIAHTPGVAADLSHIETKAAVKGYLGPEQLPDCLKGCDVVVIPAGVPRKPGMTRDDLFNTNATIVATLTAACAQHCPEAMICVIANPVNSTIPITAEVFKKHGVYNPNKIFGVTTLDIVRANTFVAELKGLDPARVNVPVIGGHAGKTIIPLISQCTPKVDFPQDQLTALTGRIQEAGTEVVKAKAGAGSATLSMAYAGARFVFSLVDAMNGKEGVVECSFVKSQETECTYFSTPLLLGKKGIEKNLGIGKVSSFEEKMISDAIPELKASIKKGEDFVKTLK
UniProt Q96EY8, 117-136: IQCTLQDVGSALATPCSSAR
UniProt Q9NU22: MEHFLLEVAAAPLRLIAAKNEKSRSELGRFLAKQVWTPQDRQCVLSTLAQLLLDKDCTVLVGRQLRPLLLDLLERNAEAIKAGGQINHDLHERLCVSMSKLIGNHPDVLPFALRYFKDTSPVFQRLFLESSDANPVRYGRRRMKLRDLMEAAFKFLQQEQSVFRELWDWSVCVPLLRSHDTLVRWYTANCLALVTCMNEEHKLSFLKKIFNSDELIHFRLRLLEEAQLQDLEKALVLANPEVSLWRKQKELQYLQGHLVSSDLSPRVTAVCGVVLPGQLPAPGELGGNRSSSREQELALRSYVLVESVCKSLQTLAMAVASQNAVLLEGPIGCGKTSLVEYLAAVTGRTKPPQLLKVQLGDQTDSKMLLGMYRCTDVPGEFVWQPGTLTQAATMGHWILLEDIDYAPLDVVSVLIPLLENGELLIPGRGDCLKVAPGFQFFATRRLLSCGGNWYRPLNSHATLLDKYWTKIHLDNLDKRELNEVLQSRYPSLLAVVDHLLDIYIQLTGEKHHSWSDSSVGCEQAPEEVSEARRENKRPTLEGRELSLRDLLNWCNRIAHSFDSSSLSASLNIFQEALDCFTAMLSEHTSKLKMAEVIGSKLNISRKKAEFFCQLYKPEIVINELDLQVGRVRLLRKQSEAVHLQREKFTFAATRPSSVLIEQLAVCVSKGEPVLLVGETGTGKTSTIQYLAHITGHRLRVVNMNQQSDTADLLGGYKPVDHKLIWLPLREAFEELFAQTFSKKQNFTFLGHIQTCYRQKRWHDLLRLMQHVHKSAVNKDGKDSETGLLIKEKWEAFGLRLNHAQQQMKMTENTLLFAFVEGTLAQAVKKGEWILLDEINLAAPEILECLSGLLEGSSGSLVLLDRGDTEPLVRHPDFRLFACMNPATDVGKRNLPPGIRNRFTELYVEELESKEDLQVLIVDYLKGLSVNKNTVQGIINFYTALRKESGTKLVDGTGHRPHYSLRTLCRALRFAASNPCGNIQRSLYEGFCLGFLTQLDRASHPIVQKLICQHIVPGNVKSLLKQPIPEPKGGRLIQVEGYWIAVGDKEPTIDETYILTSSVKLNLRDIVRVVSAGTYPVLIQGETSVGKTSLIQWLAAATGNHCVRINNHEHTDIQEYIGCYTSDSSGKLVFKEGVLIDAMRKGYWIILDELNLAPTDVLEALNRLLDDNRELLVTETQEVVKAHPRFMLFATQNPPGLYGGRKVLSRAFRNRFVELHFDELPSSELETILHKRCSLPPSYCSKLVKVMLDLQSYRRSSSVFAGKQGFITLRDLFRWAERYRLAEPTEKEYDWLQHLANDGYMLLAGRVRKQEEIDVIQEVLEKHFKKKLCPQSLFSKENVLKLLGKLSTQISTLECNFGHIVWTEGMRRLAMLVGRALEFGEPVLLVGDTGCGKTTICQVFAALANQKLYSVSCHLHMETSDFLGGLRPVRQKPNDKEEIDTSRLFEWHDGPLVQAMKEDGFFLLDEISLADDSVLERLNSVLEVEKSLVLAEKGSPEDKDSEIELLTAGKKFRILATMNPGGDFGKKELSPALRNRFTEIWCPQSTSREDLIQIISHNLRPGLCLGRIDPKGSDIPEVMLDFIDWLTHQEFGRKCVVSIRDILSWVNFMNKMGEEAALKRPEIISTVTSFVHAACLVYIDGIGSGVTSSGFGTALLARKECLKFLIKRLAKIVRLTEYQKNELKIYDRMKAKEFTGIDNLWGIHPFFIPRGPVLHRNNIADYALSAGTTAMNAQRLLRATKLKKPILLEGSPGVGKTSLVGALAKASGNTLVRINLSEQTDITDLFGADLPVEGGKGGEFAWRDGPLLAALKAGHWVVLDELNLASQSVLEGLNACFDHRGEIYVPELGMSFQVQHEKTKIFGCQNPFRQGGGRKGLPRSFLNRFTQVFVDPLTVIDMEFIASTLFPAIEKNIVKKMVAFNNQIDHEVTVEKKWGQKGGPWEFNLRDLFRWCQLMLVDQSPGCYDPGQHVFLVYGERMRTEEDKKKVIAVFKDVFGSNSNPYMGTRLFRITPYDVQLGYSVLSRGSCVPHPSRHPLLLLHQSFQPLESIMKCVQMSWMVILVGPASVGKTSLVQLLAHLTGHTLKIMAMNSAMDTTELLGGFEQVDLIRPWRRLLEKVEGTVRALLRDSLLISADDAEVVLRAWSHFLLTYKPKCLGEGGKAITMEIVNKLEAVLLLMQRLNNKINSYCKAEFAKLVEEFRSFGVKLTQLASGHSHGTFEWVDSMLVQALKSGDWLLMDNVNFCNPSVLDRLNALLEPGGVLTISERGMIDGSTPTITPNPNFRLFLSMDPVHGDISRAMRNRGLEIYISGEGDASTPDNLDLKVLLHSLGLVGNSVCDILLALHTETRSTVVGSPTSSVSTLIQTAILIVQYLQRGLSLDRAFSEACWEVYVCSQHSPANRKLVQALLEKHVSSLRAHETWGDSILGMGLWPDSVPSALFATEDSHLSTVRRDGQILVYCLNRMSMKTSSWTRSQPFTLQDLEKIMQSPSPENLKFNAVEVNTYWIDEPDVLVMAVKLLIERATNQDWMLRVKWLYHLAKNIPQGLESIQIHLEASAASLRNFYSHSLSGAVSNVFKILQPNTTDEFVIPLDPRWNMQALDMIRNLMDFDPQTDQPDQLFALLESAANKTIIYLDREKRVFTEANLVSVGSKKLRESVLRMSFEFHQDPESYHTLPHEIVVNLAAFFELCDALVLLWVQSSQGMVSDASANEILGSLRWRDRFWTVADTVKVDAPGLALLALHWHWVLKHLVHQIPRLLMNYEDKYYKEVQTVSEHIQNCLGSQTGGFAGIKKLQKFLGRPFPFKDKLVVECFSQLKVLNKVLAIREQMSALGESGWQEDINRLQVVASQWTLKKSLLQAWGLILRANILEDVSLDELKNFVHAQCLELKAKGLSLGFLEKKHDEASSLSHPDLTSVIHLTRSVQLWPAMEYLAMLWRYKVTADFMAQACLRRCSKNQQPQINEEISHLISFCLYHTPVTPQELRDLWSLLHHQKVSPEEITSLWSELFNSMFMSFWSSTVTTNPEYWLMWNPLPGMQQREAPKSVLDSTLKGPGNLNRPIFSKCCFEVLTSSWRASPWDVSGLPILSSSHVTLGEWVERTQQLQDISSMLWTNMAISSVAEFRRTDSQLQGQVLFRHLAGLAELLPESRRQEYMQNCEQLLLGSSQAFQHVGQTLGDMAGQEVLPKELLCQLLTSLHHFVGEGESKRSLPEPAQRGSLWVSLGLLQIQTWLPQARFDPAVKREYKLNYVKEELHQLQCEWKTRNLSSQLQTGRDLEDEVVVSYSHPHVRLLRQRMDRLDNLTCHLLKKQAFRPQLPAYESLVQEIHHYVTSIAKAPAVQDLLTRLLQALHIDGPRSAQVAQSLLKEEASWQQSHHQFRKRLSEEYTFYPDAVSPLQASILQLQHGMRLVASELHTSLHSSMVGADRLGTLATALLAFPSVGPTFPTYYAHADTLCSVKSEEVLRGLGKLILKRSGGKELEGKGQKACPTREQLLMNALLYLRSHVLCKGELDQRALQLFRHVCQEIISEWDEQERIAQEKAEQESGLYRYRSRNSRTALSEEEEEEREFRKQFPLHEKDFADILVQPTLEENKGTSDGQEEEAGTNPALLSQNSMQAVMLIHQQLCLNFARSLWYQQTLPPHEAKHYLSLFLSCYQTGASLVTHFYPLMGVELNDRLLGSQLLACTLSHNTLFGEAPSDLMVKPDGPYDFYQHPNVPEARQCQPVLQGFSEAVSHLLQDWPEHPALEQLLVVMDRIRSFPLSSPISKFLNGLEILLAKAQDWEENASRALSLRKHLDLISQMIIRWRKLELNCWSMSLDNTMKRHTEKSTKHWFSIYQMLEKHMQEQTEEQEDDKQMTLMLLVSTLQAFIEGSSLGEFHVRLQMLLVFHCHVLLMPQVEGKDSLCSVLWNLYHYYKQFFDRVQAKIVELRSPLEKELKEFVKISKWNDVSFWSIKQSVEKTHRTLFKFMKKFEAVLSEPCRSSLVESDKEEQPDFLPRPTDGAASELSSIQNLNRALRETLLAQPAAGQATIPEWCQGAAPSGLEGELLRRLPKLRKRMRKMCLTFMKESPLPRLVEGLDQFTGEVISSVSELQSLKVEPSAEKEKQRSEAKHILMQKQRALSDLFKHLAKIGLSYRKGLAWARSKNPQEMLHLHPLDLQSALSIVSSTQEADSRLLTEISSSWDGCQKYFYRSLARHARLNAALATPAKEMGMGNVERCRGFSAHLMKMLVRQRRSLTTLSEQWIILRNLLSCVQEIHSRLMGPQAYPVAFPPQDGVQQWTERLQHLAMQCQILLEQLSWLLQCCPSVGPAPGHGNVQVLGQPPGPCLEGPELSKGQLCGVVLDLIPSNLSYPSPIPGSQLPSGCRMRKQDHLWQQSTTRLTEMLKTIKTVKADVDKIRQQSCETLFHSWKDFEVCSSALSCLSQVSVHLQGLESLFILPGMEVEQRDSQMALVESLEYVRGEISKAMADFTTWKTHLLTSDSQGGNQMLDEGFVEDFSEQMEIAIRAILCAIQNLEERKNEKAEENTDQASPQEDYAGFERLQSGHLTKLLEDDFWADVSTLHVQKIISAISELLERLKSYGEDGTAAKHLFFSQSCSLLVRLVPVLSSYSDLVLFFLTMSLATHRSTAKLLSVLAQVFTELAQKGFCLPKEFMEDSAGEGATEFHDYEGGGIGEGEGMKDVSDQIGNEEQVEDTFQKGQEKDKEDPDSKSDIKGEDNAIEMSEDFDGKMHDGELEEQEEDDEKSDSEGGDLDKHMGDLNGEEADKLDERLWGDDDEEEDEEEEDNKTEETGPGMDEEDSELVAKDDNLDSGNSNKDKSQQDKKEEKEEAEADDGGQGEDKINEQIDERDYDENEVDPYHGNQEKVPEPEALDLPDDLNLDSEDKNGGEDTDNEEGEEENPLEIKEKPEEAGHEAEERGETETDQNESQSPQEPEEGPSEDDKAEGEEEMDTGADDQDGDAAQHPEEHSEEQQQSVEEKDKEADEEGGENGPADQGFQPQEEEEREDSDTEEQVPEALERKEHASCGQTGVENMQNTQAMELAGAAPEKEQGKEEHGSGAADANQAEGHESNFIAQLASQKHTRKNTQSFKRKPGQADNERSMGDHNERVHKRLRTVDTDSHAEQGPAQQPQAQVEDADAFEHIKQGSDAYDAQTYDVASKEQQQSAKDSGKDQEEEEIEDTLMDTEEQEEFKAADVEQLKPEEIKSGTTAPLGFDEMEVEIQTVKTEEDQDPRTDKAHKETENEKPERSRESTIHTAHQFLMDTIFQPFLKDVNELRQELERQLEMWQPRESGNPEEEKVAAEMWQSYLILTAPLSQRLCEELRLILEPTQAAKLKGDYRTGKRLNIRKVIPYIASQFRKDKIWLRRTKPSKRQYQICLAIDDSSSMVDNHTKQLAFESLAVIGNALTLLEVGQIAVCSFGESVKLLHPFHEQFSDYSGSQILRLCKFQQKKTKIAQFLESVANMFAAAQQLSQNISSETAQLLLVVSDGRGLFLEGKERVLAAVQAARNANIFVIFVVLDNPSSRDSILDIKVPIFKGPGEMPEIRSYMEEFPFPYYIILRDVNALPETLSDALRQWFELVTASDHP

compound: ClCC(=O)N[C@H]1CCCc2ccccc12; assay: log2 mean competition ratio of IA-DTB cysteine labelling (DMSO/compound) (log2 ratio); higher = stronger cysteine engagement by compound; conditions: 50 µM; treatment time: 4 h; cell line lysate: HEK293T
Experimental: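 IA-DTB competitive cysteine chemoproteomics in HEK293T RIPA lysate. Lysates were treated with compound 29 or 30 at 50 or 200 µM for 4 h, then IA-DTB (500 µM, 1 h), trypsin-digested, NeutrAvidin-enriched and analysed by diaPASEF. Competition ratio = intensity DMSO / intensity compound (n=4 treated, n=64 DMSO); binding: mean log2 CR ≥ 1 and p ≤ 0.05 plus QC filters. Target is the cysteine site.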

| Target | log2 mean competition ratio |
| --- | --- |
| MED23 C222 (UniProt Q9ULK4) | 0.311 |
| MED28 C93 (UniProt Q9H204) | 0.495 |
| MED1 C501 (UniProt Q15648) | -0.0567 |
| MOCS3 C412 (UniProt O95396) | 0.146 |
| MDH2 C93 (UniProt P40926) | -0.0893 |
| MED12 C83 (UniProt Q93074) | -0.0319 |
| MIDEAS C16, A0A1C7CYX1 | -0.0985 |
| MPP2 C468 | -0.668 |
| MMAB_(C119,C119,C132,C132) (UniProt Q96EY8) | 0.564 |
| MLYCD C360 (UniProt O95822) | -0.22 |
| METTL8 C146 (UniProt Q9H825) | -0.29 |
| MIOS C748 (UniProt Q9NXC5) | 0.113 |
| MRM2 C79 (UniProt Q9UI43) | 0.737 |
| MOCS2 C10 | 0.376 |
| MED13 C1274 (UniProt Q9UHV7) | -0.532 |
| MPP2 C334 | 0.139 |
| MDN1 C4517 (UniProt Q9NU22) | -0.522 |
| MDN1 C2158 (UniProt Q9NU22) | 0.0306 |
| MLLT3 C5 | 0.00907 |
| MKLN1 C582 (UniProt Q9UL63) | 0.682 |

same assay, conditions: 200 µM; treatment time: 4 h; cell line lysate: HEK293T

| Target | log2 mean competition ratio |
| --- | --- |
| MED23 C222 (UniProt Q9ULK4) | 0.187 |
| MED28 C93 (UniProt Q9H204) | 0.0154 |
| MED1 C501 (UniProt Q15648) | -0.146 |
| MOCS3 C412 (UniProt O95396) | 0.591 |
| MDH2 C93 (UniProt P40926) | 0.436 |
| MED12 C83 (UniProt Q93074) | 0.000964 |
| MIDEAS C16, A0A1C7CYX1 | 0.156 |
| MPP2 C468 | -0.239 |
| MMAB_(C119,C119,C132,C132) (UniProt Q96EY8) | -0.262 |
| MLYCD C360 (UniProt O95822) | 0.0327 |
| METTL8 C146 (UniProt Q9H825) | -0.181 |
| MIOS C748 (UniProt Q9NXC5) | -0.00929 |
| MRM2 C79 (UniProt Q9UI43) | 0.192 |
| MOCS2 C10 | -0.364 |
| MED13 C1274 (UniProt Q9UHV7) | -0.0196 |
| MPP2 C334 | -0.0444 |
| MDN1 C4517 (UniProt Q9NU22) | -0.144 |
| MDN1 C2158 (UniProt Q9NU22) | 0.000468 |
| MLLT3 C5 | 0.0097 |
| MKLN1 C582 (UniProt Q9UL63) | -0.0188 |
